Measurements taken from article PMC5131957.
For part of these data: The comparison behind a weaker result is the experiment's own reference, which may not be listed here. Construct, isoform or probe ends are uncertain for at least one entry. For part of these data: At least one verdict rests on a figure or table, not on a statement of the authors.

Experiments:
[1] = target: p53T (last 30 aa, CTDBD) (human) (UniProt P04637); experiment: EMSA; conditions: weaker than TAT, EMSA: 5 mM Tris-HCl pH 8, 1 mM MgCl2, 0.01% Triton X-100, 50 mM KCl, on ice or 25 C, 30 min, pBSK/SmaI competitor 5-50 ng, recombinant protein, residues 363-393, label: 32P
p53 full length (human) [2] = target: p53 full length (human) (UniProt P04637); experiment: ELISA; conditions: DO1 antibody, 2 mM Mg2+; ELISA: 1x PBS, 2 mM MgCl2, temperature not stated; recombinant protein; residues 1-393; label: 3' biotin on LockB; folded or branched DNA
p53 full length (human) [3] = target: p53 full length (human) (UniProt P04637); experiment: EMSA; conditions: EMSA: 5 mM Tris-HCl pH 8, 1 mM MgCl2, 0.01% Triton X-100, 50 mM KCl, on ice or 25 C, 30 min, recombinant protein, residues 1-393
[4] = target: p53CT (C-terminal segment: tetramerization domain + CTDBD) (human) (UniProt P04637); experiment: EMSA; conditions: weaker than TAT, EMSA: 5 mM Tris-HCl pH 8, 1 mM MgCl2, 0.01% Triton X-100, 50 mM KCl, on ice or 25 C, 30 min, pBSK/SmaI competitor 5-50 ng, recombinant protein, residues 320-393, label: 32P
[5] = 1 mM Mg2+, 50 ng pBSK/SmaI competitor, weaker than TAT, pBSK/SmaI competitor 5-50 ng, label: 32P on lock strand, folded or branched DNA

Sequence: TTTTTTTTTTTTTTTTTTTTTTTTTTTTTTTTTTTTTTTTTTTTTTTTTT (double strand) [double-stranded TA, (dT)50.(dA)50]
- binding result [1]: binds more weakly

Sequence: GGGGCCTTAGGTACTGCTGCTGCTGCTGCTGCTGCTGCTGCTGCTGATGGTACCGCGG / CCGCGGTACCATTACCTAAGGCCCCCAAC [CTG hairpin, biotinylated]
- Kd (p53 full length (human) [2]): 1.88 nM

Sequence: GGGGCCTTAGGTAAAAAAAAAAAAAAAATTTTTTTTTTTTTTTTTTGATGGTACCGCGG / CCGCGGTACCATTACCTAAGGCCCC [TA hairpin]
- binding result (p53 full length (human) [3]; [5]): binds more weakly

Sequence: AAAAAAAAAAAAAAAAAAAAAAAAAAAAAAAAAAAAAAAAAAAAAAAAAA [(dA)50]
- binding result ([1]; single-stranded DNA): binds more weakly

Sequence: TTTTTTTTTTTTTTTTTTTTTTTTTTTTTTTTTTTTTTTTTTTTTTTTTT [(dT)50]
- binding result ([4]; single-stranded DNA): binds more weakly

Sequence: TTTTTTTTTTTTTTTTTTTTTTTTTTTTTTTTTTTTTTTTTTTTTTTTTT / AAAAAAAAAAAAAAAAAAAAAAAAAAAAAAAAAAAAAAAAAAAAAAAAAA / TTTTTTTTTTTTTTTTTTTTTTTTTTTTTTTTTTTTTTTTTTTTTTTTTT [T.A.T triplex (dT)50.(dA)50.(dT)50]
- binding result (p53 full length (human) [3]; PAb421 antibody (aa 371-380), partial inhibition, pBSK/SmaI competitor 5-50 ng, label: 32P on (dA)50, folded or branched DNA): binds more weakly

Sequence: GACGGTATCGATAAGGCATCATAGCGCATCATAGCCTTGATATCGAATTC / GAATTCGATATCAAGGCTATGATGCGCTATGAGGCCATATCGATACCGTC [NON]
- binding result (p53 full length (human) [3]; 1 mM Mg2+, 50 ng pBSK/SmaI competitor, pBSK/SmaI competitor …, label: 32P): binds more weakly

Sequence: GACGGTATCGATAAGAGACATGCCTAGACATGCCTCTTGATATCGAATTC (double strand) [CON]
- binding result [4]: binds more weakly

Sequence: GGGGCCTTAGGTACTGCTGCTGCTGCTGCTGCTGCTGCTGCTGCTGATGGTACCGCGG / CCGCGGTACCATTACCTAAGGCCCC [CTG hairpin]
- binding result (p53 full length (human) [3]; [5]): binds more weakly
